Patent US20130158098A1, “Alkenyl Substituted Cycloaliphatic Compounds as Chemical Inducers of Proximity” (priority 2010, published 2013)
These are yes or no findings as the source states them, for the method shown. Binding seen in cells or lysates may run through a third protein. Some binding calls cover weakened binding; strength is not graded here.

The chains behind the UniProt entries cited, without tags or fusion partners. Where a name states a change or a piece, a line headed by the entry shows the natural chain unless it says otherwise.
UniProt P49597: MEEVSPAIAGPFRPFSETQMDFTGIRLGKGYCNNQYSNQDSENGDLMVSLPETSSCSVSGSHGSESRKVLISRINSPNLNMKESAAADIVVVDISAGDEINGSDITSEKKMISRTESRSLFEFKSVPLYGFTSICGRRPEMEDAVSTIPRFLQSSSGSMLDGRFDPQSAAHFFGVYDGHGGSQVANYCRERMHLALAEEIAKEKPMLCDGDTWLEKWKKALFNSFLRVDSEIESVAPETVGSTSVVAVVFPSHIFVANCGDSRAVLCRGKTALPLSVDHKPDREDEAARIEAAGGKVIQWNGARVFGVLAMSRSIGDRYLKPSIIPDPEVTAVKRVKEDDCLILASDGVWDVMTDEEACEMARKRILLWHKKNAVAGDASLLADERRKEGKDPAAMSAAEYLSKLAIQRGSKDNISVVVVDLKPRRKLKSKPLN

Target: GFP-PYLcs (GFP fused to PYL1 aa 33-209) (Arabidopsis thaliana) [GFP: P42212]
Assay: GST pull-down: GST-ABIcs on glutathione beads, GFP-PYLcs from 293T whole-cell lysate, with or without 500 µM ABA, Western blot

“GST-ABIcs, wild type (glutathione S-transferase fused to ABI1 aa 126-423) (from UniProt P49597 126-423)” was tested, and the binding was “binds”.
